pIC50, pKi: −log10 of the molar value.
Columns and labels:
[1] = exposed to brushborder kidney membranes
[2] = target: δ receptor (Rattus norvegicus, UniProt P33533); experiment: biochemical
Method: (§1) PBQ (phenyl-ρ-benzoquinone) induced writhing in mice is an assessment of both central and peripheral analgesia (see Sigmund, et al., Proc. Soc. Exp. Biol. Med. 95:729 (1957)). Central analgesia is determined by the inhibition of a hot-plate response in mice (see, Wolfe, et al., J. Pharmacol. Exp. Ther. 80:300 (1944)). Assays measuring opioid receptor binding affinities for μ and δ receptors as well as the GPI assay were determined through experimental protocol set out in Schiller et al. (Biophys. Res. Commun. 85:1322 (1975)). The references by Sigmund, et al., Wolfe, et al., and Schiller, et al. are each hereby incorporated by reference.
Male Sprague-Dawley rats weighing between 350-450 g were sacrificed by inhalation of CO2. […] The pellets were re-suspended in approximately 6 ml/brain of ice-cold Tris buffer 50 mM pH 7.4 and stored at −78° C. until ready for use. Protein quantification of the brain homogenate was conducted according to protein assay kit purchased (Bio-Rad).
(^3H)-DAMGO and (^3H)-DAGLE were used as radioligands for the μ and δ receptors, respectively. […] Nonspecific binding was determined using a 500 fold excess of unlabeled ligand in the presence of tracer and membranes. […] The filters were dried and radioactivity was counted in a 24 well microplate in the presence of 500 μl scintillant per well. Radioactivity was measured using a Wallace 1450 Microbeta counter. […]

Chains of the proteins cited; added tags and fusions are not shown. Lines headed by an entry give the natural chain unless they say otherwise; changes in a name come on top.
UniProt P33533, whole entry: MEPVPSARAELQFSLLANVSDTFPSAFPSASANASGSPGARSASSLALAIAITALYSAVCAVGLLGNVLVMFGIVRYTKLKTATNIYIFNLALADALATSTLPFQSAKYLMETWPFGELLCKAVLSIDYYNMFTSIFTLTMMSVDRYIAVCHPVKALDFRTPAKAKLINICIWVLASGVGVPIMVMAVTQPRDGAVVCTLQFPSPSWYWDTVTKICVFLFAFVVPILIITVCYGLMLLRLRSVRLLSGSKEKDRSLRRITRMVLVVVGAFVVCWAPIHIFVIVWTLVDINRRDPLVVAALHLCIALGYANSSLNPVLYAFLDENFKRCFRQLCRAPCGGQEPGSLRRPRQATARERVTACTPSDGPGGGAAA
UniProt P33535, whole entry: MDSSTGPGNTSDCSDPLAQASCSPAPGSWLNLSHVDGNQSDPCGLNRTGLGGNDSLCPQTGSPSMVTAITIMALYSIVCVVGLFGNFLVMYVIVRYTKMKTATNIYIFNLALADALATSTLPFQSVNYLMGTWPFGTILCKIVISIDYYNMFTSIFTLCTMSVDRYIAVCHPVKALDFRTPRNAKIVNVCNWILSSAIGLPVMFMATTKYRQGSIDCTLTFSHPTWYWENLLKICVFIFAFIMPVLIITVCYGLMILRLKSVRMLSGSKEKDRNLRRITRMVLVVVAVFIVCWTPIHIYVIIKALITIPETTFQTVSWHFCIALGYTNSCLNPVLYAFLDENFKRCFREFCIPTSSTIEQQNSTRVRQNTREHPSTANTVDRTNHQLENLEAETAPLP
UniProt P97266, whole entry, looked up: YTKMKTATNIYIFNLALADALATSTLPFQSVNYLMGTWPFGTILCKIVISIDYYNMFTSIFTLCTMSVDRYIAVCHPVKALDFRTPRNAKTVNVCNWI

[3] = target: T1, μ receptor (Rattus norvegicus, UniProt P33535); experiment: Radioligand binding assay, μ opioid receptor ((3H)-DAMGO, brain membranes)
T1 construct: the brains (minus the cerebellum) were removed, placed in ice-cold saline solution, and then homogenized; from tissue; host or cells: rat brain (minus cerebellum) membranes
Method: as §1
Male Sprague-Dawley rats weighing between 350-450 g were sacrificed by inhalation of CO2. The rats were decapitated and the brains (minus the cerebellum) were removed, placed in ice-cold saline solution, and then homogenized in ice-cold 50 mM Tris buffer pH 7.4 (10 ml/brain). Membranes were centrifuged at 14000 rpm for 30 min. at 4° C. The pellets were re-suspended in approximately 6 ml/brain of ice-cold Tris buffer 50 mM pH 7.4 and stored at −78° C. until ready for use. Protein quantification of the brain homogenate was conducted according to protein assay kit purchased (Bio-Rad).
(^3H)-DAMGO and (^3H)-DAGLE were used as radioligands for the μ and δ receptors, respectively. Radioligand 50 μl, membranes 100 μl, and serially diluted test compound were incubated for 1 hr at 22° C. Nonspecific binding was determined using a 500 fold excess of unlabeled ligand in the presence of tracer and membranes. Free ligand was separated from bound by filtration through Whatman GF/B paper (presoaked in polyethylenimine 1% aqueous solution) and rinsing with ice-cold 50 mM Tris pH 7.4 using a Brandel cell harvester. The filters were dried and radioactivity was counted in a 24 well microplate in the presence of 500 μl scintillant per well. Radioactivity was measured using a Wallace 1450 Microbeta counter. Ki's for the various compounds were determined from the IC50 according to the Cheng and Prusoff equation.

[4] = target: μ receptors (Cavia porcellus, UniProt P97266); experiment: Guinea Pig Ileum (GPI) assay, longitudinal muscle preparation
Method: The activity of the peptide compounds on μ receptors was determined using the Guinea Pig Ileum (GPI) assay (longitudinal muscle preparation) according to the procedures described in Schiller et al., Biophys. Res. Commun. 85:1322 (1975).

| SMILES | time to degradation [1] | pKi [2] | pKi ([3]; Binding Assay Kiμ, Table 2) | pKi ([3]; Ki^μ, Table 1) | Binding Assay Kiδ Kiμ ([3]; Table 2, selectivity ratio) | pIC50 ([4]; CPI IC50, Table 2) | pIC50 ([4]; GPI(IC50), Table 1) |
| --- | --- | --- | --- | --- | --- | --- | --- |
| C[C@@H](NC(=O)[C@@H](N)Cc1ccc(O)cc1)C(=O)N[C@@H](Cc1ccccc1)C(=O)N[C@@H](Cc1ccccc1)C(N)=O [BCH1774, H-Tyr-D-Ala-Phe-Phe-NH2] | 15 to 30 min |  |  |  |  |  |  |
| N=C(N)NCCC[C@@H](NC(=O)[C@@H](N)Cc1ccc(O)cc1)C(=O)N[C@@H](Cc1ccccc1)C(=O)N[C@@H](Cc1ccccc1)C(N)=O [BCH2687, H-Tyr-D-Arg-Phe-Phe-NH2] |  | 5.78 | 9.17 | 9.06 | 2430 | 8.17 | 8.06 |

From US20030032774A1, “Novel opioid peptides for the treatment of pain” (priority 1994, published 2003)
